Laboratory results taken from the supplement of paper PMC10331698.
± gives the standard deviation of the averaged measurements. Most entries show no effect beyond the scatter of the controls.

Key:
Assay in all cases: level (log10 ratio to DMSO vehicle control); higher = higher biomarker level / cell amount than vehicle control
[1] = compound: C=C(C)C(=O)OCCC(F)(F)C(F)(F)C(F)(F)C(F)(F)C(F)(F)C(F)(F)F [6:2 Fluorotelomer methacrylate] (in DMSO); details: 2200 nM
Description: (§1)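 BioMAP Diversity Plus panel of 12 human primary cell co-culture systems (3C, 4H, LPS, SAg, BT, BF4T, BE3C, CASM3C, HDF3CGF, KF3CT, MyoF, Mphg). Compounds were added 1 h before stimulation and left for 24 h (MyoF 48 h; BT 72 h for soluble read-outs or 6 d for IgG). Biomarkers were read by ELISA, cytotoxicity by SRB, PBMC viability and proliferation by Alamar Blue. Each well value was divided by the mean of 8 DMSO control wells on the same plate and log10 transformed; duplicate blinded samples were tested at 4 concentrations.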

[2] = compound: CNS(=O)(=O)C(F)(F)C(F)(F)C(F)(F)C(F)(F)C(F)(F)C(F)(F)C(F)(F)C(F)(F)F [N-Methylperfluorooctanesulfonamide] (in DMSO); details: 2200 nM
Description: as §1

[3] = compound: FC(F)(F)C(F)(F)C(F)(F)C(F)(F)CCI [1H,1H,2H,2H-Perfluorohexyl iodide] (in DMSO); details: 2200 nM
Description: as §1

[4] = compound: FC(F)(F)C(F)(F)CNCC(F)(F)C(F)(F)F [Bis(1H,1H-perfluoropropyl)amine] (in DMSO); details: 2200 nM
Description: as §1

[5] = compound: FC(F)(F)COC(OCC(F)(F)F)OCC(F)(F)F [tris(Trifluoroethoxy)methane] (in DMSO); details: 2200 nM
Description: as §1

Hexafluoroglutaric acid = compound: O=C(O)C(F)(F)C(F)(F)C(F)(F)C(=O)O [Hexafluoroglutaric acid] (in DMSO)
Description: as §1

Perfluorohexanoic acid = compound: O=C(O)C(F)(F)C(F)(F)C(F)(F)C(F)(F)C(F)(F)F [Perfluorohexanoic acid] (in DMSO)
Description: as §1

[6] = compound: O=C(O)C(F)(F)C(F)(F)C(F)(F)OC(F)(C(F)(F)F)C(F)(F)F [Perfluoro-4-isopropoxybutanoic acid] (in DMSO); details: 2200 nM
Description: as §1

[7] = compound: O=C(O)C(F)(OC(F)(F)C(F)(F)C(F)(F)F)C(F)(F)F [Ammonium perfluoro-2-methyl-3-oxahexanoate] (in Water)
Description: as §1

[8] = compound: O=C(O)C(F)(OC(F)(F)C(F)(OC(F)(F)C(F)(OC(F)(F)C(F)(F)C(F)(F)F)C(F)(F)F)C(F)(F)F)C(F)(F)F [Perfluoro-(2,5,8-trimethyl-3,6,9-trioxadodecanoic)acid] (in DMSO); details: 370 nM
Description: as §1

[9] = compound: O=C(O)CCC(F)(F)C(F)(F)C(F)(F)F [3:3 Fluorotelomer carboxylic acid] (in DMSO); details: 2200 nM
Description: as §1

[10] = compound: O=S(=O)(O)C(F)(F)C(F)(F)C(F)(F)C(F)(F)F [Perfluorobutanesulfonic acid] (in DMSO)
Description: as §1

[11] = compound: OCC(F)(F)C(F)(F)C(F)(F)C(F)(F)C(F)(F)C(F)(F)CO [1H,1H,8H,8H-Perfluorooctane-1,8-diol] (in DMSO); details: 2200 nM
Description: as §1

[12] = compound: OCC(F)(F)C(F)(F)C(F)(F)C(F)(F)C(F)(F)C(F)(F)F [6:1 Fluorotelomer alcohol] (in DMSO); details: 2200 nM
Description: as §1

[13] = compound: OCC(F)(F)C(F)(F)C(F)(F)C(F)F [1H,1H,5H-Perfluoropentanol] (in DMSO); details: 2200 nM
Description: as §1

[14] = compound: OCC(F)(F)OC(F)(F)C(F)(F)OC(F)(F)CO [1H,1H,8H,8H-Perfluoro-3,6-dioxaoctane-1,8-diol] (in DMSO); details: 2200 nM
Description: as §1

[15] = compound: OCCCC(F)(F)C(F)(F)C(F)(F)C(F)(F)C(F)(F)C(F)(F)C(F)(F)C(F)(F)F [3-(Perfluorooctyl)propanol] (in DMSO); details: 2200 nM
Description: as §1

Row | Test System | level (log10) [1] | level (log10) [2] | level (log10) [3] | level (log10) [4] | level (log10) [5] | level (log10) (Hexafluoroglutaric acid; 2200 nM) | level (log10) (Hexafluoroglutaric acid; 6700 nM) | level (log10) (Hexafluoroglutaric acid; 20000 nM) | level (log10) (Hexafluoroglutaric acid; 60000 nM) | level (log10) (Perfluorohexanoic acid; 2200 nM) | level (log10) (Perfluorohexanoic acid; 6700 nM) | level (log10) (Perfluorohexanoic acid; 20000 nM) | level (log10) (Perfluorohexanoic acid; 60000 nM) | level (log10) [6] | level (log10) ([7]; 2200 nM) | level (log10) ([7]; 6700 nM) | level (log10) ([7]; 20000 nM) | level (log10) ([7]; 60000 nM) | level (log10) [8] | level (log10) [9] | level (log10) ([10]; 2200 nM) | level (log10) ([10]; 6700 nM) | level (log10) ([10]; 20000 nM) | level (log10) ([10]; 60000 nM) | level (log10) [11] | level (log10) [12] | level (log10) [13] | level (log10) [14] | level (log10) [15]
1 | KF3CT:CXCL8/IL-8 | -0.007 ± 0.0014 | -0.001 ± 0.0014 | 0.003 ± 0.038 | -0.007 ± 0.0042 | 0.0065 ± 0.012 | -0.012 ± 0.037 | -0.0115 ± 0.025 | -0.006 ± 0.0057 | -0.0135 ± 0.0021 | -0.0015 ± 0.042 | -0.005 ± 0.014 | 0.009 ± 0.04 | 0.031 ± 0.013 | 0.002 ± 0.024 | 0.003 ± 0.0099 | 0.0175 ± 0.036 | 0.0135 ± 0.00071 | 0.0165 ± 0.0092 | 0.0075 ± 0.026 | 0.0065 ± 0.00071 | 0.001 ± 0.0085 | -0.031 ± 0.02 | -0.002 ± 0.0042 | 0.004 ± 0.0071 | 0.0015 ± 0.028 | -0.003 ± 0.0042 | 0.026 ± 0.0085 | 0.0155 ± 0.00071 | 0.0035 ± 0.042
2 | KF3CT:CXCL9/MIG | 0.0135 ± 0.0092 | 0.01 ± 0.0014 | 0.0105 ± 0.0092 | 0.0065 ± 0.005 | 0.013 ± 0.031 | -0.004 ± 0.0028 | -0.007 ± 0.0014 | -0.0075 ± 0.0064 | -0.0065 ± 0.0021 | 0.0045 ± 0.0035 | 0.0075 ± 0.0064 | 0.0035 ± 0.012 | 0.0095 ± 0.012 | 0.01 ± 0.0014 | -0.0015 ± 0.0064 | -0.007 ± 0.011 | 0.0025 ± 0.00071 | 0.0005 ± 0.0021 | -0.0045 ± 0.005 | 0.0005 ± 0.00071 | 0.016 ± 0.027 | 0.0185 ± 0.029 | 0.021 ± 0.017 | 0.0345 ± 0.0078 | 0.002 ± 0.0014 | -0.0015 ± 0.0078 | -0.002 ± 0.0099 | -0.001 ± 0.0071 | -0.009 ± 0.028
3 | KF3CT:CXCL10/IP-10 | 0.033 ± 0.0071 | 0.007 ± 0.031 | 0.023 ± 0.031 | -0.0025 ± 0.005 | 0.012 ± 0.023 | -0.0035 ± 0.013 | -0.001 | -0.01 ± 0.0014 | 0.005 ± 0.0014 | 0.005 ± 0.0028 | 0.0045 ± 0.0092 | 0.0045 ± 0.005 | 0.017 ± 0.0014 | 0.0255 ± 0.0092 | -0.009 ± 0.0042 | -0.017 ± 0.0085 | 0.004 ± 0.0057 | 0.005 ± 0.0042 | -0.0005 ± 0.0021 | -0.0025 ± 0.0078 | 0.034 ± 0.037 | 0.0305 ± 0.025 | 0.0385 ± 0.028 | 0.0405 ± 0.019 | 0.006 ± 0.0085 | -0.0035 ± 0.005 | 0.0005 ± 0.005 | 0.0005 ± 0.0021 | -0.009 ± 0.021
4 | KF3CT:IL-1alpha | -0.004 ± 0.0071 | 0.046 ± 0.017 | 0.028 ± 0.011 | -0.0125 ± 0.011 | 0.014 ± 0.033 | -0.026 ± 0.033 | -0.021 ± 0.014 | 0.012 ± 0.013 | -0.0395 ± 0.012 | 0.003 ± 0.028 | -0.0045 ± 0.011 | -0.0185 ± 0.011 | 0.008 ± 0.021 | 0.026 ± 0.021 | -0.0255 ± 0.0064 | -0.001 ± 0.0071 | 0.011 ± 0.0014 | -0.0355 ± 0.044 | -0.0105 ± 0.022 | 0.0175 ± 0.059 | 0.0045 ± 0.011 | -0.009 ± 0.0042 | -0.0085 ± 0.0078 | -0.006 ± 0.025 | 0.022 ± 0.021 | 0.0095 ± 0.0064 | 0.0375 ± 0.063 | -0.004 ± 0.062 | -0.0375 ± 0.042
5 | KF3CT:MMP-9 | -0.0145 ± 0.036 | 0.0195 ± 0.015 | -0.002 ± 0.0085 | -0.0245 ± 0.013 | 0.0105 ± 0.00071 | 0.006 ± 0.0099 | -0.001 ± 0.023 | 0.015 ± 0.021 | 0.005 ± 0.0099 | -0.01 ± 0.018 | -0.009 ± 0.014 | -0.0055 ± 0.0035 | 0.017 ± 0.016 | 0.003 ± 0.0099 | 0.0145 ± 0.023 | -0.008 ± 0.011 | 0.0415 ± 0.026 | 0.0695 ± 0.0035 | -0.0105 ± 0.011 | 0.0105 ± 0.0078 | -0.013 ± 0.027 | -0.0115 ± 0.0021 | -0.008 ± 0.013 | -0.0145 ± 0.005 | 0.019 ± 0.02 | -0.0225 ± 0.015 | -0.0005 ± 0.013 | 0.0215 ± 0.0092 | -0.008 ± 0.0028
6 | KF3CT:PAI-I | -0.0375 ± 0.039 | 0.064 ± 0.023 | -0.003 ± 0.0042 | -0.013 ± 0.017 | 0.005 ± 0.0099 | 0 ± 0.017 | -0.004 ± 0.0042 | -0.0005 ± 0.005 | 0.0045 ± 0.0092 | -0.0125 ± 0.0021 | -0.0075 ± 0.00071 | -0.0175 ± 0.0035 | -0.0085 ± 0.00071 | -0.008 ± 0.016 | -0.0435 ± 0.047 | -0.0455 ± 0.012 | -0.0695 ± 0.0078 | -0.054 ± 0.02 | -0.009 | 0.008 ± 0.031 | 0.008 ± 0.024 | -0.014 ± 0.048 | 0.003 ± 0.0099 | -0.007 ± 0.027 | 0.0115 ± 0.011 | 0.0015 ± 0.026 | 0.0155 ± 0.043 | 0.016 ± 0.018 | -0.019 ± 0.024
7 | KF3CT:SRB | 0.0065 ± 0.021 | 0.0075 ± 0.0021 | -0.0045 ± 0.013 | 0.0065 ± 0.0092 | 0.011 ± 0.013 | 0.002 ± 0.011 | -0.0055 ± 0.0021 | -0.011 ± 0.0057 | 0.003 ± 0.018 | 0.0065 ± 0.021 | 0.0045 ± 0.0035 | -0.012 ± 0.0014 | 0.0045 ± 0.00071 | -0.002 ± 0.021 | 0.0015 ± 0.005 | -0.004 | -0.005 ± 0.0014 | -0.0015 ± 0.005 | 0.006 ± 0.014 | 0.013 ± 0.023 | 0.007 ± 0.0085 | 0.002 ± 0.0042 | 0 ± 0.0014 | 0 ± 0.0014 | 0 ± 0.0099 | 0.0125 ± 0.022 | 0.0095 ± 0.0078 | 0.018 ± 0.03 | -0.011 ± 0.0028
8 | KF3CT:TIMP-2 | 0.0035 ± 0.025 | -0.011 ± 0.011 | -0.016 ± 0.0042 | 0.0115 ± 0.0035 | 0.009 ± 0.014 | -0.013 ± 0.0042 | -0.026 ± 0.014 | -0.028 ± 0.0042 | -0.013 ± 0.011 | -0.0165 ± 0.013 | 0.004 ± 0.016 | -0.0125 ± 0.0035 | -0.0125 ± 0.0078 | 0.002 ± 0.0028 | 0.0075 ± 0.025 | -0.0005 ± 0.037 | -0.002 ± 0.025 | 0.022 ± 0.027 | -0.0085 ± 0.03 | 0.0065 ± 0.028 | -0.0085 ± 0.035 | -0.0265 ± 0.005 | -0.0045 ± 0.029 | -0.0135 ± 0.022 | -0.007 ± 0.061 | -0.015 ± 0.014 | -0.011 ± 0.0014 | 0.011 ± 0.017 | -0.0155 ± 0.064
